Data reported in patent US11332500B2 (BicycleTx Limited, priority 2019, dated 2022).

Experiment: general procedure: Fmoc solid-phase peptide synthesis; Chlorotrityl resin (1.10 mmol/g); HBTU/DIEA
Details: conjugation step

Substance	conjugation yield	final purity (method not given)
Ac-SDKCSAGWLTMCQK[PYA]LHLCPSH (SEQ ID NO: 9; BCY10861) / [Ac]C[tBuAla]PE[dK]PYCFADPY[Nle]C[Dap(PYA)] (SEQ ID NO: 69; BCY11144)	34.62% yield	94.54% purity
Ac-SDKCSAGWLTMCQK[PYA]LHLCPSH (SEQ ID NO: 6; BCY10861) / [Ac]C[tBuAla]EE(dK)PYCFADPY[Nle]C[Dap(PYA)] (SEQ ID NO: 68; BCY12023)	41.62% yield	97.27% purity
